The subject of this test is Hela. Nature of the test: Anti-proliferative activity, CTG assay, Hela cells. It counts as cell-based. As to conditions: Homo sapiens, 72 h, read-out: Inhibition rate Hela (%). On the procedure:
RPMI 8226 and HL-7702 cells were cultured in RPMI-1640 medium, Hela cells were cultured in MEM medium, and HL-60 cells were cultured in IMDM medium with 1% penicillin–streptomycin solution and 10% FBS, respectively. The above cells were cultured at 37 °C and 5% CO2. After 24 h of cell spreading, 99 μL of medium per well was prepared and 1 μL of the compound prepared solution was added to the wells. Then, the solution was incubated at 37 °C in a 5% CO2 incubator for 72 h. The cell plates to be tested were left at room temperature and 100 μL of medium per well was discarded. Then, 100 μL of CTG reagent was added, placed in a rapid shaker for 2 min, and left at room temperature away from light for 30 min. The chemiluminescence signal was read by an envision multifunctional enzyme marker. The inhibition ratios and IC50 values were calculated using Prism Graph Pad software.

Data on 1 molecule can be found in paper PMC9147695, “Design, Synthesis, Bioactivity Evaluation, Crystal Structures, and In Silico Studies of New α-Amino Amide Derivatives as Potential Histone Deacetylase 6 Inhibitors” (Molecules, 2022).

Consider `O=C(CCCCCCC(=O)Nc1ccccc1)NO` [SAHA, vorinostat, reference compound], for which the inhibition at 10 µM (10 μM) was 96.06 ± 0.7%. Besides, for the setting “50 μM”, the inhibition at 50 µM was 99.78 ± 0.15%.

The inhibition is the percentage by which the read-out fell short of the control.
